Assay results: PubChem BioAssay AID330 (DTP/NCI, 2004)
The list does not hold the whole screen: it covers a few groups of compounds. Not every dose and run of a compound is shown. T/C is the treated group as % of the vehicle group. Some doses have a count of surviving animals in place of a T/C: the source files T/C as zero there, which appears to mark a toxic dose or a test without result, not a measured value. Some survivor counts are full or nearly so, which does not show that the dose was tolerated: survival well below the control is almost never listed, so the zero probably covers shortened survival too. Survivors were counted at the toxicity check, usually on the fifth day, unless a day is given; later deaths do not show. Schedule codes are those of the source, taken here to give the interval after Q, in days (D) or hours (H), and the number of doses after X. Some metal complexes and salts are drawn in pieces, as in the source, so charges may not balance. Where survival is the endpoint, this PubChem deposit counts one and a half times the control or more as active, and values a quarter to a half above the control carry no call in these data; other NCI protocols may use other cut-offs. Some entries hold several experiments; the results are listed from low to high. Some T/C values are marked as having no survivor count here; that says nothing about deaths at the dose. Some T/C values carry the count of animals alive at the toxicity check (mostly the fifth day); without a count or a note in brackets, all were alive then. Additions like (4×) give the number of equal values in this list.

Test system: P388 leukemia ip, CD2F1 mice, survival T/C
Test: NCI In Vivo Anticancer Drug Screen. Data for tumor model P388 Leukemia (intraperitoneal) in CD2F1 (CDF1) mice
Settings: T/C endpoint: median survival time, higher T/C = longer survival
[1] = dose: 100.0 mg/kg/injection, schedule: Q04DX003 (ip), vehicle: Klucel (hydroxypropylcellulose) (HPC)
[2] = dose: 200.0 mg/kg/injection, schedule: Q04DX003 (ip), vehicle: Klucel (hydroxypropylcellulose) (HPC)
[3] = dose: 400.0 mg/kg/injection, schedule: Q04DX003 (ip), vehicle: Klucel (hydroxypropylcellulose) (HPC)
[4] = dose: 60.0 mg/kg/injection, schedule: Q01DX005 (ip), vehicle: saline with Tween-80
[5] = dose: 120.0 mg/kg/injection, schedule: Q01DX005 (ip), vehicle: saline with Tween-80
[6] = dose: 240.0 mg/kg/injection, schedule: Q01DX005 (ip), vehicle: saline with Tween-80
[7] = dose: 12.5 mg/kg/injection, schedule: Q01DX009 (ip), vehicle: saline
[8] = dose: 25.0 mg/kg/injection, schedule: Q01DX009 (ip), vehicle: saline
[9] = dose: 50.0 mg/kg/injection, schedule: Q01DX009 (ip), vehicle: saline
[10] = dose: 100.0 mg/kg/injection, schedule: Q01DX009 (ip), vehicle: saline
[11] = dose: 200.0 mg/kg/injection, schedule: Q01DX009 (ip), vehicle: saline
[12] = dose: 400.0 mg/kg/injection, schedule: Q01DX009 (ip), vehicle: saline
[13] = dose: 25.0 mg/kg/injection, schedule: Q04DX003 (ip), vehicle: Klucel (hydroxypropylcellulose) (HPC)
[14] = dose: 50.0 mg/kg/injection, schedule: Q04DX003 (ip), vehicle: Klucel (hydroxypropylcellulose) (HPC)

Compound: N/C(=N\[N+](=O)[O-])N(N)CCN(N)/C(N)=N/[N+](=O)[O-]
- T/C [1]: 100 % of control [survivor count not shown]
- T/C [2]: 106 % of control [survivor count not shown]
- T/C [3]: 103 % of control [survivor count not shown]

Compound: CCN(CC)CC#CCOC(=O)C(O)(c1ccccc1)c1cccs1 (stereo not given)
- T/C (dose: 60.0 mg/kg/injection, schedule: Q01DX005 (ip), vehicle: Klucel (hydroxypropylcellulose) (HPC)): 98 % of control

Compound: ClCCN(CCCl)c1cccc(CN2CCCCC2)c1
- survivor count (dose: 75.0 mg/kg/injection, schedule: Q04DX003 (ip), vehicle: Klucel (hydroxypropylcellulose) (HPC)): 0 of 6
- survivor count (dose: 150.0 mg/kg/injection, schedule: Q04DX003 (ip), vehicle: Klucel (hydroxypropylcellulose) (HPC)): 3 of 6
- survivor count (dose: 300.0 mg/kg/injection, schedule: Q04DX003 (ip), vehicle: Klucel (hydroxypropylcellulose) (HPC)): 2 of 6

Compound: CC1(C)CC[P+](CCC[P+]2(c3ccccc3)CCC(C)(C)c3ccccc32)(c2ccccc2)c2ccccc21.F[P-](F)(F)(F)(F)F (stereo not given)
- T/C (dose: 3.12 mg/kg/injection, schedule: Q01DX005 (ip), vehicle: saline with Tween-80): 91 % of control [4 of 6 alive]
- T/C (dose: 6.25 mg/kg/injection, schedule: Q01DX005 (ip), vehicle: saline with Tween-80): 99 % of control
- T/C (dose: 12.5 mg/kg/injection, schedule: Q01DX005 (ip), vehicle: saline with Tween-80): 96 % of control [4 of 6 alive]

Compound: O=[N+]([O-])c1cc([N+](=O)[O-])c(O)c([N+](=O)[O-])c1.c1csc(C2CCCN2)c1
- T/C [4]: 100 % of control
- T/C [5]: 107 % of control
- survivor count [6]: 0 of 6

Compound: CN(C)C(=O)Oc1ccc[nH]c1=O
- T/C [7]: 94, 95, 110 % of control
- T/C [8]: 100, 106, 108 % of control
- T/C [9]: 87, 93, 100 % of control
- T/C [10]: 100, 103, 107 % of control
- T/C [11]: 103, 107, 110 % of control
- T/C [12]: 101 and 120 % of control
- survivor count [12]: 1 of 6

Compound: COP1OCC(C(C)(C)C)CN1c1ccccc1 (stereo not given)
- T/C [1]: 100 % of control
- T/C [2]: 101 % of control
- T/C [3]: 98 % of control

Compound: O=C(CI)Nc1ccc(N(CCCl)CCCl)cc1
- T/C (dose: 50.0 mg/kg/injection, schedule: Q01DX001 (ip), vehicle: Klucel (hydroxypropylcellulose) (HPC)): 117 % of control
- T/C (dose: 100.0 mg/kg/injection, schedule: Q01DX001 (ip), vehicle: Klucel (hydroxypropylcellulose) (HPC)): 116 % of control
- T/C (dose: 200.0 mg/kg/injection, schedule: Q01DX001 (ip), vehicle: Klucel (hydroxypropylcellulose) (HPC)): 115 % of control

Compound: ClCCNCCCCCNCCCl
- T/C (dose: 100.0 mg/kg/injection, schedule: Q04DX003 (ip), vehicle: saline): 141 % of control
- T/C (dose: 132.0 mg/kg/injection, schedule: Q04DX003 (ip), vehicle: saline): 163 % of control
- T/C (dose: 200.0 mg/kg/injection, schedule: Q04DX003 (ip), vehicle: saline, evaluated on day 20): 166 % of control
- T/C (dose: 200.0 mg/kg/injection, schedule: Q04DX003 (ip), vehicle: saline, evaluated on day 30): 195 % of control
- T/C (dose: 300.0 mg/kg/injection, schedule: Q04DX003 (ip), vehicle: saline): 218 % of control
- T/C (dose: 400.0 mg/kg/injection, schedule: Q04DX003 (ip), vehicle: saline): 133 % of control

Compound: NC(Cc1ccc(N(CCCl)CCCl)c(Cl)c1)C(=O)O (stereo not given)
- T/C (dose: 1.25 mg/kg/injection, schedule: Q04DX003 (ip), vehicle: saline with Tween-80): 190 % of control
- T/C (dose: 2.0 mg/kg/injection, schedule: Q01DX009 (ip), vehicle: saline): 250 % of control
- T/C (dose: 2.5 mg/kg/injection, schedule: Q04DX003 (ip), vehicle: saline with Tween-80): 222 % of control
- T/C (dose: 3.3 mg/kg/injection, schedule: Q04DX003 (ip), vehicle: saline sonified): 272 % of control
- survivor count (dose: 4.0 mg/kg/injection, schedule: Q01DX009 (ip), vehicle: saline): 6 of 6
- T/C (dose: 5.0 mg/kg/injection, schedule: Q04DX003 (ip), vehicle: saline sonified): 272 % of control
- T/C (dose: 5.0 mg/kg/injection, schedule: Q04DX003 (ip), vehicle: saline with Tween-80): 272 % of control
- T/C (dose: 7.5 mg/kg/injection, schedule: Q04DX003 (ip), vehicle: saline sonified): 118 % of control
- survivor count (dose: 8.0 mg/kg/injection, schedule: Q01DX009 (ip), vehicle: saline): 5 of 6
- survivor count (dose: 10.0 mg/kg/injection, schedule: Q04DX003 (ip), vehicle: saline with Tween-80): 5 of 6
- survivor count (dose: 20.0 mg/kg/injection, schedule: Q04DX003 (ip), vehicle: saline with Tween-80): 3 of 6
- survivor count (dose: 40.0 mg/kg/injection, schedule: Q04DX003 (ip), vehicle: saline with Tween-80): 2 of 6

Compound: ClC1CCCCC1SCCCC1OCCO1 (stereo not given)
- T/C [4]: 120 % of control
- T/C [5]: 122 % of control
- T/C [6]: 118 % of control

Compound: C1CCC(CC[N-]CC[N-]CCC2CCCC[N-]2)[N-]C1.F[P-](F)(F)(F)(F)F.[Cu+2] (stereo not given)
- T/C (dose: 6.25 mg/kg/injection, schedule: Q01DX009 (ip), vehicle: saline with Tween-80): 100 % of control
- T/C (dose: 12.5 mg/kg/injection, schedule: Q01DX009 (ip), vehicle: saline with Tween-80): 104 % of control (2×)
- T/C (dose: 25.0 mg/kg/injection, schedule: Q01DX009 (ip), vehicle: saline with Tween-80): 100 and 103 % of control [5 of 6 alive]
- survivor count (dose: 50.0 mg/kg/injection, schedule: Q01DX009 (ip), vehicle: saline with Tween-80): 1 of 6
- survivor count (dose: 100.0 mg/kg/injection, schedule: Q01DX009 (ip), vehicle: saline with Tween-80): 0 of 6
- survivor count (dose: 200.0 mg/kg/injection, schedule: Q01DX009 (ip), vehicle: saline with Tween-80): 0 of 6

Compound: CC1(C)C2CCC(C2)C1(Cl)CSC(=O)SC(Cl)C(Cl)Cl (stereo not given)
- T/C [9]: 92 % of control
- T/C [10]: 100 % of control
- T/C [11]: 99 % of control

Compound: C1=C[N-]c2c3c(ccc2=C1)=CC=C[N-]3.C1=C[N-]c2c3c(ccc2=C1)=CC=C[N-]3.F[P-](F)(F)(F)(F)F.[Cu+2]
- T/C (dose: 3.13 mg/kg/injection, schedule: Q04DX003 (ip), vehicle: Klucel (hydroxypropylcellulose) (HPC)): 96 % of control
- T/C (dose: 6.25 mg/kg/injection, schedule: Q04DX003 (ip), vehicle: Klucel (hydroxypropylcellulose) (HPC)): 99 % of control
- T/C (dose: 12.5 mg/kg/injection, schedule: Q04DX003 (ip), vehicle: Klucel (hydroxypropylcellulose) (HPC)): 101 and 106 % of control
- survivor count [13]: 6 of 6
- survivor count [14]: 0 of 6

Compound: OCCN(CCO)CCO.OCCN(CCO)CCO.[Ni+2].[O-][Cl+3]([O-])([O-])O
- T/C [7]: 102 % of control
- T/C [8]: 102 % of control
- T/C [9]: 93 % of control
- survivor count [9]: 6 of 6
- survivor count [10]: 0 of 6
- survivor count [11]: 0 of 6

Compound: N/C(N=C1N=NN=N1)=N\[N+](=O)[O-]
- T/C [13]: 103 % of control [survivor count not shown]
- T/C [14]: 100 % of control [survivor count not shown]
- T/C [1]: 97 [survivor count not shown] and 103 % of control [survivor count not shown]

Compound: CC1CCCN2C(=NC3C2C(=O)N(C)C(=O)N3C)N1 (stereo not given)
- T/C (dose: 50.0 mg/kg/injection, schedule: Q01DX001 (ip), vehicle: saline with Tween-80): 98 % of control
- T/C (dose: 100.0 mg/kg/injection, schedule: Q01DX001 (ip), vehicle: saline with Tween-80): 97 % of control
- survivor count (dose: 200.0 mg/kg/injection, schedule: Q01DX001 (ip), vehicle: saline with Tween-80): 6 of 6

Compound: CP(=O)(O)OP(C)(=O)O.[Zn+2]
- T/C (dose: 12.5 mg/kg/injection, schedule: Q04DX002 (ip), vehicle: saline): 109 % of control [survivor count not shown]
- T/C (dose: 25.0 mg/kg/injection, schedule: Q04DX002 (ip), vehicle: saline): 115 % of control [survivor count not shown]
